The assay has as its system MCF-7 cells. Description: Cytotoxic assay, Adriamycin in sensitive human breast carcinoma MCF-7 cells. The assay is classed as cell-based. Particulars: MCF7, MCF-7 (sensitive), no chemosensitizer, 48 hours, read-out: ADR IC50. As to the method:
Cell Culture: HCT116/VM46 cells were selected from human colon carcinoma HCT116 cell line for resistance to VM26 and MCF-7/ADR cells were selected from human breast carcinoma MCF-7 cell line for resistance to Adriamycin. […] The cell lines were grown in tissue culture flasks containing McCoy's A medium and 10% fetal bovine serum. Cells were maintained at 37° C. in a humidified atmosphere containing 5% CO2 and subcultured every 5 days.
Cytotoxic Assay: The cells were seeded in 96 well microtiter plates at 5×10^3 cells per well and allowed to grow for 24 hours at 37° C. Cells were then incubated with decreasing amounts of antitumor agents: Adriamycin (100 μM, maximal concentration) or actinomycin D (17.6 ng/ml), for MCF-7 and HCT-116 cells, respectively. Chemosensitizers were added at variable concentrations ranging from 0.08 μM to 40 μM. In parallel, verapamil was used as positive control at the same concentrations. After 48 hours of incubation, the cells were washed, fixed and stained with crystal violet. Absorbance was read by Molecular Devices' microtiter plate reader at the wavelength of 595nm. The IC50 value (50% inhibition of cell growth) was determined from relative survival rates resulted from two to three independent experiments. […]

Molecules are shown by their SMILES.

Regarding `COc1cccc2c1C(=O)c1c(O)c3c(c(O)c1C2=O)C[C@@](O)(C(=O)CO)C[C@@H]3O[C@H]1C[C@H](N)[C@H](O)[C@H](C)O1` [ADR], the IC50 came out at 360 nM.

The values above are taken from patent US5173486A, “Dibenz[b,f][1,4]oxazepin-11(10H)-ones for multidrug resistance reversing agents” (Bristol-Myers Squibb Company, priority 1991, dated 1992).
